{"source": "PubChem BioAssay AID540256", "about": "(National Center for Advancing Translational Sciences (NCATS), 2011)", "note": "About 3,700 (1.2%) of roughly 300,000 compounds were called active. This list was built around the results that the source calls inconclusive (neither active nor inactive); the mix of calls is not that of the screen. The call rests on the fitted dose curve; tested in HEK293 cells. Potencies of inconclusive entries are doubtful fits and often do not repeat. Potency means the concentration at half of the fitted maximal effect."}
{"test": "qHTS for Inhibitors of binding or entry into cells for Lassa Virus; further: nearly all actives have a fitted effect of over 50% in size", "conditions": "Lassa virus pseudotype entry inhibition, cell reporter; series mostly up to 37.9 µM"}
{"smiles": "O=C(CN1N=C(c2ccc(Cl)cc2)CCC1=O)NCCc1ccccc1", "Potency": "inactive"}
{"smiles": "Cc1ccc(CSCC(=O)Nc2cc(S(=O)(=O)N3CCOCC3)ccc2OC(C)C)cc1", "Potency": "inconclusive: 15.8 µM [inhibitor, single point]"}
{"smiles": "Fc1ccc(N2CCN(Cc3cc4c(cc3Br)OCO4)CC2)cc1", "Potency": "inconclusive: 0.708 µM [inhibitor, full curve, poor fit]"}
{"smiles": "O=C(CSc1ncn[nH]1)Nc1nsc(-c2ccccc2)n1", "Potency": "inconclusive: 35.5 µM [activator, single point]"}
{"smiles": "CC(C)(Nc1ccccc1)C(=O)c1ccccc1", "Potency": "inconclusive: 0.411 µM [activator, partial curve, poor fit]"}
{"smiles": "COc1cccc(NC(=O)CN(C)C(=O)c2c(C)nn(Cc3ccc(C)cc3)c2Cl)c1", "Potency": "inconclusive: 35.5 µM [inhibitor, single point]"}
{"smiles": "CCCOc1ccc(/C=N/Nc2ccccc2[N+](=O)[O-])c(OCCC)c1", "Potency": "inconclusive: 35.5 µM [activator, partial curve, poor fit]"}
{"smiles": "COc1ccc(C(NC(=O)c2c(F)c(F)c(F)c(F)c2F)c2ccccc2)cc1", "note": "(stereo not given)", "Potency": "active: 22.4 µM"}
{"smiles": "COc1ccc(S(=O)(=O)N(CC(=O)NCc2ccco2)c2ccccc2)cc1", "Potency": "inactive"}
{"smiles": "CCCN1C(=O)/C(=N\\OCC(=O)Nc2ccc(C(C)C)cc2)c2ccccc21", "Potency": "inconclusive: 1.26 µM [activator, single point]"}
{"smiles": "CC(Oc1cccc(Cl)c1)C(=O)Nc1ccccc1C(=O)N1CCCCC1", "note": "(stereo not given)", "Potency": "inconclusive: 35.5 µM [inhibitor, single point]"}
{"smiles": "CCCC(=O)NC(=S)Nc1ccc(N2CCN(C(=O)c3cccs3)CC2)cc1", "Potency": "inconclusive: 14.1 µM [inhibitor, partial curve, poor fit]"}
{"smiles": "O=C(Nc1nc2c(s1)CCCC2)c1cccc(S(=O)(=O)N2CCCc3ccccc32)c1", "Potency": "inconclusive: 10 µM [inhibitor, partial curve, poor fit]"}
{"smiles": "Cc1ccccc1NC(=O)c1oc2c(c1C)-c1nn(Cc3cccc(Cl)c3)cc1CC2", "Potency": "inactive"}
{"smiles": "COc1cc2c(cc1NC(=O)c1ccco1)CCCC2", "Potency": "inconclusive: 2.59 µM [activator, partial curve, poor fit]"}
{"smiles": "Nc1nnc(SCCCOc2ccc(F)cc2)s1", "Potency": "inconclusive: 5.62 µM [activator, full curve, poor fit]"}
{"smiles": "CCOc1ccc(CN2C(=O)c3ccccc3C2C(=O)NCc2cccnc2)cc1", "note": "(stereo not given)", "Potency": "inconclusive: 16.4 µM [inhibitor, single point]"}
{"smiles": "O=C(CSCc1ccccc1)N/N=C/c1cc2c(cc1Br)OCO2", "Potency": "inconclusive: 17.8 µM [inhibitor, partial curve, poor fit]"}
{"smiles": "CCCCNCCOc1ccccc1-c1ccccc1", "Potency": "inconclusive: 20.6 µM [inhibitor, partial curve, poor fit]"}
{"smiles": "COc1ccc(Oc2ncccc2NC(=O)c2cccc(C)c2C)cc1", "Potency": "inconclusive: 22.4 µM [inhibitor, single point]"}
{"smiles": "CCN(Cc1ccccc1)c1ccc(/C=N/NC(=S)NC(C)C)cc1", "Potency": "inconclusive: 15.8 µM [inhibitor, single point]"}
{"smiles": "COc1cc(/C=N\\NC(=O)c2nonc2N)c(OC)cc1Br", "Potency": "inconclusive: 32.6 µM [inhibitor, partial curve, poor fit]"}
{"smiles": "C#CCn1c(S(=O)(=O)Cc2ccc(OC)cc2)nc(-c2ccccc2)c1-c1ccccc1", "Potency": "inconclusive: 10.3 µM [inhibitor, partial curve, poor fit]"}
{"smiles": "Cc1ccc(Nc2nc(CSc3nnc(-c4cccnc4)n3-c3ccccc3C)cs2)cc1", "Potency": "inconclusive: 16.4 µM [inhibitor, single point]"}
{"smiles": "CCCCN(CC)CCNC(=O)c1cc2c(=O)n(CC)c3ccccc3c2s1", "Potency": "inconclusive: 6.31 µM [inhibitor, single point]"}
{"smiles": "Cc1cccc2c1cnn2C(=O)Nc1ccccc1Br", "Potency": "inconclusive: 35.5 µM [inhibitor, single point]"}
{"smiles": "COC(=O)C1CCN(C(=O)COC(=O)c2oc3ccc(OC)cc3c2C)CC1", "Potency": "inconclusive: 35.5 µM [inhibitor, partial curve, poor fit]"}
{"smiles": "CC12CCC3C(CCC4(O)CC(O)CCC34C=O)C1(O)CCC2C1=CC(=O)OC1", "note": "(stereo not given)", "Potency": "active: 0.708 µM"}
{"smiles": "COC(=O)C1=C(C)NC2=C(C(=O)CC(c3cccs3)C2)C1c1ccsc1", "note": "(stereo not given)", "Potency": "inconclusive: 8.91 µM [inhibitor, partial curve]"}
{"smiles": "CCc1cc(C(c2ccccc2OC)N2CCOCC2)c(NC(=O)c2ccccc2)s1", "note": "(stereo not given)", "Potency": "inconclusive: 35.5 µM [inhibitor, partial curve, poor fit]"}
{"smiles": "O=C(N/N=C/c1ccccc1O)/C(=C/c1ccccc1)CCO", "Potency": "inconclusive: 3.55 µM [inhibitor, partial curve]"}
{"smiles": "COc1ccc(/C=N/NC(=O)c2cccc(NC(=O)c3ccccc3Cl)c2)cc1", "Potency": "inconclusive: 2.31 µM [inhibitor, partial curve]"}
{"smiles": "COC(=O)c1sc(-c2ccc(C(C)(C)C)cc2)cc1NC(=O)/C=C/C(=O)O", "Potency": "inconclusive: 22.4 µM [inhibitor, single point]"}
{"smiles": "COc1ccc(C(=O)Cc2ccc3c(c2)OCO3)c(O)c1", "Potency": "inconclusive: 22.4 µM [inhibitor, single point]"}
{"smiles": "CCCC/C(=N\\NC(=O)c1ccc(Br)o1)c1ccccc1", "Potency": "inconclusive: 14.6 µM [activator, partial curve, poor fit]"}
{"smiles": "Cc1cc(C(=O)Nc2ccncc2)ccc1[N+](=O)[O-]", "Potency": "inactive"}
{"smiles": "O=C(Nc1ccc(NC(=O)c2cccs2)cc1)c1ccccc1", "Potency": "inconclusive: 12.6 µM [activator, partial curve, poor fit]"}
{"smiles": "CC1(C)Cc2c(C#N)c(OCC(=O)c3ccc(Cl)cc3)nc(-c3ccco3)c2CO1", "Potency": "inactive"}
{"smiles": "Nc1ccc(C#Cc2ccccc2)cc1", "Potency": "inactive"}
{"smiles": "Cc1cc(Cl)ccc1NC(=O)NC1CCN(S(=O)(=O)c2ccc(F)cc2)CC1", "Potency": "inconclusive: 0.259 µM [inhibitor, full curve, poor fit]"}
{"smiles": "Cc1ccc(NC(=O)CCn2cnc3ccccc3c2=O)cc1", "Potency": "inconclusive: 12.6 µM [activator, partial curve, poor fit]"}
{"smiles": "O=C(Nc1nccs1)c1ccc(Cl)cc1[N+](=O)[O-]", "Potency": "inconclusive: 6.51 µM [activator, single point]"}
{"smiles": "CC(C)(C)C1CCc2nc(NC(=O)Cc3ccccc3)sc2C1", "note": "(stereo not given)", "Potency": "inactive"}
{"smiles": "CCc1c(C)nc2ncnn2c1N1CCN(S(=O)(=O)c2ccc(OC)cc2)CC1", "Potency": "inconclusive: 0.316 µM [inhibitor, full curve, poor fit]"}
{"smiles": "Cc1ccc(N(C(=O)c2snc(C(N)=O)c2N)C(C(=O)NC2CCCC2)c2ccc(C)o2)cc1", "note": "(stereo not given)", "Potency": "inconclusive: 10 µM [inhibitor, partial curve, poor fit]"}
{"smiles": "CC(C)Cn1c(N)c(C(=O)COC(=O)c2cc(C3CC3)nc3ccccc23)c(=O)n(C)c1=O", "Potency": "active: 20.6 µM"}
{"smiles": "O=C(c1cc(F)c(F)cc1Cl)N1CCCCC1", "Potency": "inconclusive: 0.708 µM [activator, full curve, poor fit]"}
{"smiles": "COc1ccc(OC)c(-c2nc3ccccc3nc2-c2ccccc2)c1", "Potency": "inconclusive: 10 µM [inhibitor, partial curve, poor fit]"}
{"smiles": "COc1ccc2nc(SCc3nc(N)nc(Nc4ccccc4)n3)[nH]c2c1", "Potency": "inactive"}
{"smiles": "c1ccc(-c2noc(C3CCCCC3)n2)nc1", "Potency": "inconclusive: 1.26 µM [activator, single point]"}
{"smiles": "Cc1ccc(OCC(=O)c2cc(C)n(Cc3cccs3)c2C)c([N+](=O)[O-])n1", "Potency": "inconclusive: 1.41 µM [inhibitor, full curve, poor fit]"}
{"smiles": "COc1ccc(-c2cc(CNC(C)=O)on2)cc1", "Potency": "inconclusive: 5.62 µM [activator, single point]"}
{"smiles": "CSc1ccccc1C(=O)NCCS(=O)(=O)N1CCN(c2ccc(F)cc2)CC1", "Potency": "inactive"}
{"smiles": "COc1ccccc1CN1CC(C(=O)N2CCCCO2)CCC1=O", "note": "(stereo not given)", "Potency": "inactive"}
{"smiles": "Cc1ccc(OCC(=O)Nc2nnc(S(=O)(=O)N3CCCCCC3)s2)cc1", "Potency": "inconclusive: 6.31 µM [activator, partial curve, poor fit]"}
{"smiles": "CN(C)C(CNC(=O)c1cc(S(=O)(=O)N(C)c2ccccc2)ccc1Cl)c1ccccc1", "note": "(stereo not given)", "Potency": "inconclusive: 11.2 µM [inhibitor, partial curve, poor fit]"}
{"smiles": "CCn1c(/C=C2\\C(=O)Nc3ccccc32)nc2ccccc2c1=O", "Potency": "inconclusive: 23.1 µM [inhibitor, partial curve, poor fit]"}
{"smiles": "O=C1CC(N2CCSCC2)C(=O)N1c1cccc(Br)c1", "note": "(stereo not given)", "Potency": "inactive"}
{"smiles": "COCCNC(=S)NNc1cccc(C(=O)O)c1", "Potency": "inconclusive: 1.41 µM [activator, single point]"}
{"smiles": "CC(C)c1ccc(S(=O)(=O)c2cnc(SCC(=O)Nc3ccc4c(c3)OCCO4)[nH]c2=O)cc1", "Potency": "inactive"}
{"smiles": "CC(C)c1nc2cc(C(=O)N(C)Cc3ccc(F)cc3)ccc2o1", "Potency": "inconclusive: 1.41 µM [activator, partial curve, poor fit]"}
{"smiles": "Cc1cccc(C(=O)NNc2ncnc3c2cnn3-c2ccc(C)cc2C)c1", "Potency": "inactive"}
{"smiles": "O=[N+]([O-])c1ccccc1-c1cc(-c2ccccc2O)n[nH]1", "Potency": "inconclusive: 3.16 µM [activator, single point]"}
{"smiles": "Cc1ccc(/C=N/NC(=O)c2nnn(-c3nonc3N)c2CSc2ccccc2)s1", "Potency": "inconclusive: 0.562 µM [inhibitor, partial curve, poor fit]"}
{"smiles": "CCCCCCCOC(=O)C1=C(C)Nc2ncnn2C1c1cccs1", "note": "(stereo not given)", "Potency": "active: 13 µM"}
